Results on 1 molecule are retold here after paper PMC5099880.

The chains behind the UniProt entries cited, without tags or fusion partners.
UniProt Q9JMH9: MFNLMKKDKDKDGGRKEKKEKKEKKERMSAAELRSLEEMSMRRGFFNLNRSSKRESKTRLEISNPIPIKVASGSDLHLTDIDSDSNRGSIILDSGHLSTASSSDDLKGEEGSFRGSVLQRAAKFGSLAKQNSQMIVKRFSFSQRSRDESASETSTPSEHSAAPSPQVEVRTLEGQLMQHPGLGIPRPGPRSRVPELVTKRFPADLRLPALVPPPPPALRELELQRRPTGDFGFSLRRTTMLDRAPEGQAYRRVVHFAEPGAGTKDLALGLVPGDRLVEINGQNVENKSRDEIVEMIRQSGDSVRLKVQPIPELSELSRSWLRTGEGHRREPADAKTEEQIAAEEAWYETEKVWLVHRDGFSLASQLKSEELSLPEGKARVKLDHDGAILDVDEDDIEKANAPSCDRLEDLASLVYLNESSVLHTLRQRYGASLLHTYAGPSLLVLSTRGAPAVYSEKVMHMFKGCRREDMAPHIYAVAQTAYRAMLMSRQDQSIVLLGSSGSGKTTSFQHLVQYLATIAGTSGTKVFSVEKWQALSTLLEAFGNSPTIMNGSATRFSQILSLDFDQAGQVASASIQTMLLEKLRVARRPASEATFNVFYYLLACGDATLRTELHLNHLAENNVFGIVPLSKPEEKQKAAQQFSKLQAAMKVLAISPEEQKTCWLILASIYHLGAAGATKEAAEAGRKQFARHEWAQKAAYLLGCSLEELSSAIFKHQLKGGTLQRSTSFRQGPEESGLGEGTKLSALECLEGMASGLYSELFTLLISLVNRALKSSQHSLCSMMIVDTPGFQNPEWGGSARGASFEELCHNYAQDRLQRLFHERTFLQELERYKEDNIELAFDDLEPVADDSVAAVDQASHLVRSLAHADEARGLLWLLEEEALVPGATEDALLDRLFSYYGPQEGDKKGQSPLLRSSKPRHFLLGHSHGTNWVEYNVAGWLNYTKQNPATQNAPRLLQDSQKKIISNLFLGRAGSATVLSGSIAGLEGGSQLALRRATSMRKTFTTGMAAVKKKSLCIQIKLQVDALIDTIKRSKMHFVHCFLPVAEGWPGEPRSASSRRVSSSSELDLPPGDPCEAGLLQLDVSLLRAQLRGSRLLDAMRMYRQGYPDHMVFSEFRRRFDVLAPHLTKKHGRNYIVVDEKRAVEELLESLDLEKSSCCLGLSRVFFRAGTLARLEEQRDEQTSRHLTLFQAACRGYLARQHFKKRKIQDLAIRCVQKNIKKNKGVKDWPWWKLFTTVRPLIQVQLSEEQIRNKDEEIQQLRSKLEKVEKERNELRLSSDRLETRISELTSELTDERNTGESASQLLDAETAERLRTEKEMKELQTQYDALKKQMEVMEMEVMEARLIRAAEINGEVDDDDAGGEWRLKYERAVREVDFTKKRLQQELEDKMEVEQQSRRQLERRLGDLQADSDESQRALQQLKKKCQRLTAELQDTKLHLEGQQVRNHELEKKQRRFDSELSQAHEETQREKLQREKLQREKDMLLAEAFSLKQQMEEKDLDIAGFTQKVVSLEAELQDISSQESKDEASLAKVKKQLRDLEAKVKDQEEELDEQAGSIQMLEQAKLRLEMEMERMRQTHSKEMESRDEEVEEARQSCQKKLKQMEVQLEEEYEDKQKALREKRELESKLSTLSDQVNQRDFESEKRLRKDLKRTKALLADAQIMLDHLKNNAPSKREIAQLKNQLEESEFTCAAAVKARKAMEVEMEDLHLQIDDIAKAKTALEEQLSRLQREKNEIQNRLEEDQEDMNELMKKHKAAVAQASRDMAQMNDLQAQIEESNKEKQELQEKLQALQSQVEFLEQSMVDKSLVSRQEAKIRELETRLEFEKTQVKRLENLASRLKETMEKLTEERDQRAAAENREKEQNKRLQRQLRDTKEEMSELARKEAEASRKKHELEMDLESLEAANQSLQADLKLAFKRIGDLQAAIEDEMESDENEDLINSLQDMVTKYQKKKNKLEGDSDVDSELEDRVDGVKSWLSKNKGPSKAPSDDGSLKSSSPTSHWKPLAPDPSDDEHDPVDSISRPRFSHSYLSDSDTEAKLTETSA

The target of this assay is N-terminal myc-tagged full-length mouse MYO18A (mouse) (UniProt Q9JMH9). The assay can be described thus: co-IP; HEK293T cells co-transfected, lysed in 150 mM NaCl, 50 mM Tris-HCl pH 7.5, 1% Triton X-100; anti-myc antibody agarose beads, 2 hours at 4 °C, five washes with 500 mM NaCl lysis buffer; blots with anti-GFP and anti-myc.

These are yes or no findings as the source states them, for the method shown. Binding seen in cells or lysates may run through a third protein. Some binding calls cover weakened binding; strength is not graded here. Tags and fused reporters may be left off the sequences shown.

B1: EGFP-tagged mouse Golgin45 (protein, UniProt Q8R2X8 1-403)
chain: MEKMTTLKSSENKGILTSTPIRGAGDGMETEEPPKSVEVTHGVQPINQHVLPSPRKKVSSDSPGVLQLGKILNERTVEVEAVRIFVPKAAITHDIPTKNTKVKSLGHHREELHNQAEVVTDPRKELSEVKKVLEKLKNSERRLLQDKEGLSNQLRVQTEINRELKKLLVASVGDDPQYHFERLAREKNQLILENEALGRNTAQLSEQLERMSIQCDVWRSKFLASRVMADELTNFRVVLQRQNRDAQSAIQDLLSEREQFRQEMTSTQKFLEELLVSLQWGREQTYSPNTQPHSTADLALTNHGLAQAIHAHLLGNVGISHQKKIPTTVEFCSTPAEKMAEKVLRILDPVACTESSPDNQFAESSPTTLLTTKKNIGRFHPYTRYENITFNCCNHCQGELIAL
As to B1, the binding result is recorded as “binds”.
